Where two headings read alike, the source gives them in different places. Results are given in words; binding and its absence hold for the method and conditions named. In cells and extracts the contact can be indirect. These calls come from enrichment with a bait or labelling near it, and not all partners need be listed.
B1: Mllt10/Af10 (protein, UniProt O54826 1-1068)
chain: MVSSDRPVSLEDEVSHSMKEMIGGCCVCSDERGWAENPLVYCDGHGCSVAVHQACYGIVQVPTGPWFCRKCESQERAARVRCELCPHKDGALKRTDNGGWAHVVCALYIPEVQFANVSTMEPIVLQSVPHDRYNKTCYICDEQGRESKAATGACMTCNKHGCRQAFHVTCAQFAGLLCEEEGNGADNVQYCGYCKYHFSKLKKSKRGSNRSYEQSLSDSSSHSQDKHHEKEKKKYKEKDKHKQKHKKQPEPSPALVPSLTVTTEKTYTSTSNNSISGSLKRLEDTAARFTNANFQEVSAHTSSGKDVSEARGSEGKGKKSSAHSSGQRGRKPGAGRNPGTAVSASSPFPQGSFSGTPGSVKSSSGSSVQSPQDFLSFTDSDLRSDSYTHTQQPSSTKDVHKGESGSQEAAVNSFSSLVGHPVTSTVISQPKSFDNSPGELGSSSLPTAGYKRAQTSGIEEEAVKEKKRKGNKQSKHGPGRPKGNKNQENVSHLSVSSASPTSSVASAAGSVTSSSLQKSPTLLRNGSLQSLSVGSSPVGSEISMQYRHDGACPTTTFSELLNAIHNGIYNSNDVAVSFPNVVSGSGSSTPVSSSHIPQQSSGHLQQVGALSPSAASSVTPAAATTQANTVSGSSLSQAPAHMYGSRLNQNPSMAVLIAQSESSQTDQDLGDNARSLGGRGSSPRGSLSPRSPVSNLQLRYDQPSNSSLETVPPVAASIEQLLERQWSEGQQFLLEQGTPGDILGMLKSLHQLQVENRRLEEQIKNLTAKKERLQLLNAQLSVPFPAITTNPSPSHQMHTYTAQTAPPPDSLNSSKSPHIGNSFLPDNSLPVLNQDLTSSGQSTSSSSALSTPPPAGQSPAQQSSGVSGVQQVNGVTVGALASGMQTVTSTIPAVSAVGGIIGALPGNQLAINGIVGALNGVIQTPVTISQNPAPLTHTSVPPNAAHPMPAAALTNSASGLGLLSDQQRQMFIQQQQFQQLLNSQQLTPEQHQAFLYQLMQQQHHPPELQQLQLPGPTQIPINNLLAGAQAPPLHTATTNPFLTIHGDSTSQKVTRLSDKTGPVAQEKS

By UniProt entry, the sequences of proteins in these tests, tags left out.
UniProt Q924A0: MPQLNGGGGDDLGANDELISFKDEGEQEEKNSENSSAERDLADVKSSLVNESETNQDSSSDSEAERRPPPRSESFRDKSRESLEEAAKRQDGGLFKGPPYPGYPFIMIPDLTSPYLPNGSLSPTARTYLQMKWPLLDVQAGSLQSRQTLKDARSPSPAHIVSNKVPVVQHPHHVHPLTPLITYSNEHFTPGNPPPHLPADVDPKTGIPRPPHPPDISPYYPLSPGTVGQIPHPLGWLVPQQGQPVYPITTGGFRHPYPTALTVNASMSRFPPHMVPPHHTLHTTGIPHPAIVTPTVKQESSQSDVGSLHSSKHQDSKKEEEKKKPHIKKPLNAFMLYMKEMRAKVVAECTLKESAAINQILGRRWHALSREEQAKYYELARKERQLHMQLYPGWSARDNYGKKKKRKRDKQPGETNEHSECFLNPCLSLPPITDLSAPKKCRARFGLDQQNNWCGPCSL
UniProt Q6XZL8: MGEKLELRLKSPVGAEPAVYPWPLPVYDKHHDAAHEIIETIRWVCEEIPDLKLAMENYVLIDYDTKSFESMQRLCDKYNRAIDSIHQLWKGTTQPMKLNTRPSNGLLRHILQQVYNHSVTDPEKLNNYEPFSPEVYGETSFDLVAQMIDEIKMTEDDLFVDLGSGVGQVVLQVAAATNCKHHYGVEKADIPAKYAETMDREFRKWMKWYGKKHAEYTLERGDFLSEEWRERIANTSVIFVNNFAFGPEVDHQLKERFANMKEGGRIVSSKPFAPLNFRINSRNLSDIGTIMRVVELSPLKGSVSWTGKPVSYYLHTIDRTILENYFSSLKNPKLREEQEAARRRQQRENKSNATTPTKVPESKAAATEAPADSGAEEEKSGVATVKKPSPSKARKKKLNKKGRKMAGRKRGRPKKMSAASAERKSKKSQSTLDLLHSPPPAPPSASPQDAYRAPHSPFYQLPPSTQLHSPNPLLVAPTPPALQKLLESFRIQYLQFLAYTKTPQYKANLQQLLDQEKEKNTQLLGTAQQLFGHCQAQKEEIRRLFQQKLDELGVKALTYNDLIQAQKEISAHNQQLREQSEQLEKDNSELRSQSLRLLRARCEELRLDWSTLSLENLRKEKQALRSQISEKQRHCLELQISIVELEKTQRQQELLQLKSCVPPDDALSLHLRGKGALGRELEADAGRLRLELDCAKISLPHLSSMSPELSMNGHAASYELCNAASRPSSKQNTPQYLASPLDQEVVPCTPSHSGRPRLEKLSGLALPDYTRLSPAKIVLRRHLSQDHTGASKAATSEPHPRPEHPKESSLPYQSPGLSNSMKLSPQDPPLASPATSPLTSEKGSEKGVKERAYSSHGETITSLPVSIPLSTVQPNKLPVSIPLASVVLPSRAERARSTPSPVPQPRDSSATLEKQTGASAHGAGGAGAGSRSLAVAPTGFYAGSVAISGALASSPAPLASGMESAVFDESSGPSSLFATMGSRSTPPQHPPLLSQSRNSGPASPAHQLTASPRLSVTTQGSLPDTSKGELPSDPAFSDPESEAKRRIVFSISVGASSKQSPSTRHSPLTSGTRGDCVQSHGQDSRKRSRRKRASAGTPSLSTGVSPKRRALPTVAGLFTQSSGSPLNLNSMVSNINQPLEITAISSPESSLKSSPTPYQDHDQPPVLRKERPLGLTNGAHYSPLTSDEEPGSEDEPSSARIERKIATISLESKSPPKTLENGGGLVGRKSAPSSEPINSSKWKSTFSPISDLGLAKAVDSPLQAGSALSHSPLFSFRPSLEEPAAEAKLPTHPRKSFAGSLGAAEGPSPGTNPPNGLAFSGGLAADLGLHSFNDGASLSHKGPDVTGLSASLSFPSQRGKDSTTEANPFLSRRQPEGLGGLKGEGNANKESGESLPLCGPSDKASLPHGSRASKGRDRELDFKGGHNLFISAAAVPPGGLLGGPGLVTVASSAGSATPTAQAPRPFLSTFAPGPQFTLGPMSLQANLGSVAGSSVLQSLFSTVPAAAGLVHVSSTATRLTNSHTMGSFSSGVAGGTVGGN

Tests used:
[1] = target: Tcf4 (mouse (endogenous in small intestinal crypts)) (UniProt Q924A0); assay: affinity purification with mass spectrometry; endogenous Tcf4 immunopurified from purified mouse small intestinal crypt fractions, isotype-matched IgGs as control; SDS-PAGE, Coomassie staining, in-gel trypsin digestion, nanoLC-MS/MS
[2] = target: Tcf4 (mouse (endogenous in small intestinal crypts)) (UniProt Q924A0); assay: as above; remark: listed apart in the source

Molecule	binding [1]	binding [2]
Dot1l (from UniProt Q6XZL8 1-1540) (enzyme)	binds	–
B1	–	binds
